PubChem BioAssay AID1224827 – NIAID | 2016
Here is one part, drawn at random, of about 3,800 reagents. About 2,200 of them (57%) count as active. 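Active means a strong reporter change in either direction; calls are per siRNA, not per gene; qiagen siRNAs gave weaker effects.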 A number with no mark means an inactive call. The numbers tell different reagents against one gene apart.

Assay: 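Confirm genes whose knock-down changes LPS-driven TNF promoter activity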 (follow-up of hits)
System: RAW264.7 G9 mouse macrophage reporter clone
Knock-down reagent: single siRNA against mouse genes, 100 nM siRNA
Duration: siRNA for 2 days, then LPS about 16 h
Challenge: bacterial lipopolysaccharide (LPS), 10 ng/ml, cells fixed after overnight (about 16 h) stimulation
Detection: 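Imaged nuclear TNF reporter intensity, background removed, scaled per plate and to non-targeting control wells, as z-scores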
Direction: TNF reporter z-score, mean and TNF reporter z-score: higher = stronger Tnf promoter reporter signal; gene median z, three same-vendor siRNAs: higher = stronger Tnf reporter signal for the gene
Hit rule: 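Active siRNA: replicate-mean z-score of 2 or more, or -2 or less; no calls for control wells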

no.	gene knocked down	reagent	TNF reporter z-score, mean	gene median z, three same-vendor siRNAs	TNF reporter z-score, repeat 1	TNF reporter z-score, repeat 2
1	Epo (erythropoietin)	1	0.751	-2.96	-0.349	1.85
2	Epo (erythropoietin)	2	-2.96 (active)	-2.96	-2.63	-3.29
3	Epo (erythropoietin)	3	-4.37 (active)	-2.96	-4.85	-3.89
4	Epo (erythropoietin)	4	1.14	-1.41	2.28	-0.000609
5	Epo (erythropoietin)	5	-1.58	-1.41	-1.41	-1.74
6	Epo (erythropoietin)	6	-1.79	-1.41	-2.17	-1.41
7	Tmem107 (transmembrane protein 107)	1	8.12 (active)	0.0599	7.12	9.11
8	Tmem107 (transmembrane protein 107)	2	0.0599	0.0599	0.335	-0.215
9	Tmem107 (transmembrane protein 107)	3	-3.72 (active)	0.0599	-4.06	-3.38
10	Tmem107 (transmembrane protein 107)	4	2.82 (active)	1.11	5.07	0.577
11	Tmem107 (transmembrane protein 107)	5	1.34	1.11	3.18	-0.508
12	Tmem107 (transmembrane protein 107)	6	0.851	1.11	1.64	0.0589
13	Bmp3 (bone morphogenetic protein 3)	1	-3.27 (active)	-4.3	-4.2	-2.34
14	Bmp3 (bone morphogenetic protein 3)	2	-4.3 (active)	-4.3	-4.25	-4.36
15	Bmp3 (bone morphogenetic protein 3)	3	-5.47 (active)	-4.3	-5.4	-5.55
16	Bmp3 (bone morphogenetic protein 3)	4	3.32 (active)	-1.23	4.69	1.95
17	Bmp3 (bone morphogenetic protein 3)	5	-1.23	-1.23	-0.791	-1.68
18	Bmp3 (bone morphogenetic protein 3)	6	-2.46 (active)	-1.23	-2.25	-2.68
19	Or4a39 (olfactory receptor family 4subfamily A member 39)	1	-1.53	-4.96	-1.51	-1.56
20	Or4a39 (olfactory receptor family 4subfamily A member 39)	2	-5.28 (active)	-4.96	-4.65	-5.9
21	Or4a39 (olfactory receptor family 4subfamily A member 39)	3	-5.63 (active)	-4.96	-5.27	-5.99
22	Or4a39 (olfactory receptor family 4subfamily A member 39)	4	4.85 (active)	1.71	7.38	2.33
23	Or4a39 (olfactory receptor family 4subfamily A member 39)	5	2.75 (active)	1.71	4.84	0.662
24	Or4a39 (olfactory receptor family 4subfamily A member 39)	6	0.0562	1.71	1.1	-0.983
25	Entr1 (endosome associated trafficking regulator 1)	1	1.62	-2.97	0.676	2.56
26	Entr1 (endosome associated trafficking regulator 1)	2	-2.97 (active)	-2.97	-3.08	-2.87
27	Entr1 (endosome associated trafficking regulator 1)	3	-3.68 (active)	-2.97	-3.88	-3.48
28	Entr1 (endosome associated trafficking regulator 1)	4	3.6 (active)	2.84	6.32	0.869
29	Entr1 (endosome associated trafficking regulator 1)	5	2.84 (active)	2.84	4.89	0.79
30	Entr1 (endosome associated trafficking regulator 1)	6	2.8 (active)	2.84	4.81	0.784
31	Gstm3 (glutathione S-transferase, mu 3)	1	-0.544	-2.2	-1.09	-0.00122
32	Gstm3 (glutathione S-transferase, mu 3)	2	-2.2 (active)	-2.2	-2.48	-1.91
33	Gstm3 (glutathione S-transferase, mu 3)	3	-3.88 (active)	-2.2	-3.25	-4.51
34	Gstm3 (glutathione S-transferase, mu 3)	4	2.97 (active)	-0.359	5.45	0.495
35	Gstm3 (glutathione S-transferase, mu 3)	5	-0.359	-0.359	0.16	-0.878
36	Gstm3 (glutathione S-transferase, mu 3)	6	-2.09 (active)	-0.359	-1.89	-2.28
37	Iqcc (IQ motif containing C)	1	0.399	-4.97	-0.106	0.903
38	Iqcc (IQ motif containing C)	2	-4.97 (active)	-4.97	-4.73	-5.2
39	Iqcc (IQ motif containing C)	3	-5.49 (active)	-4.97	-5.21	-5.77
40	Pepf (pepsinogen F)	1	10.4 (active)	-2.18	9.13	11.6
41	Pepf (pepsinogen F)	2	-2.71 (active)	-2.18	-4.25	-1.17
42	Pepf (pepsinogen F)	3	-3.55 (active)	-2.18	-3.2	-3.89
43	Pepf (pepsinogen F)	4	3.74 (active)	-2.81	6.58	0.904
44	Pepf (pepsinogen F)	5	-2.92 (active)	-2.81	-2.42	-3.41
45	Pepf (pepsinogen F)	6	-3.84 (active)	-2.81	-4.48	-3.2
46	Dynlrb2 (dynein light chain roadblock-type 2)	1	-0.969	-4.51	-1.17	-0.765
47	Dynlrb2 (dynein light chain roadblock-type 2)	2	-4.62 (active)	-4.51	-4.71	-4.52
48	Dynlrb2 (dynein light chain roadblock-type 2)	3	-4.71 (active)	-4.51	-4.92	-4.5
49	Dynlrb2 (dynein light chain roadblock-type 2)	4	3.46 (active)	-0.79	6.61	0.316
50	Dynlrb2 (dynein light chain roadblock-type 2)	5	-1.27	-0.79	-0.386	-2.15
51	Dynlrb2 (dynein light chain roadblock-type 2)	6	-1.67	-0.79	-1.19	-2.14
52	Hdac5 (histone deacetylase 5)	1	-2.29 (active)	-2.85	-2.83	-1.74
53	Hdac5 (histone deacetylase 5)	2	-2.79 (active)	-2.85	-2.87	-2.72
54	Hdac5 (histone deacetylase 5)	3	-3.84 (active)	-2.85	-4.64	-3.03
55	Hdac5 (histone deacetylase 5)	4	3.49 (active)	-0.903	5.36	1.62
56	Hdac5 (histone deacetylase 5)	5	-1.37	-0.903	-0.203	-2.54
57	Hdac5 (histone deacetylase 5)	6	-2.05 (active)	-0.903	-1.6	-2.51
